Reference: PubChem BioAssay (Tox21)
This list was built around the results that the source calls inconclusive (neither active nor inactive); the mix of calls is not that of the screen. Potencies of inconclusive entries are doubtful fits and often do not repeat. Active and inactive are the calls of the source. Calls come from the whole dose curve; as a rule, active = well fitted cell-killing curve with a large enough effect in the repeat runs; inconclusive = weak or mixed curves, or effect the other way; inactive = flat fitted curve, though single readings scatter.

Experiment: cAMP Responsive Elements (CRE) small molecule agonists, cell-based qHTS assay: qHTS cell viability counter screen (AID 2060914);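 note: viability read after 3 h of compound exposure; nearly all actives have a fitted effect of over 50% in size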
Settings: CRE-bla HEK293T viability, CellTiter-Glo luminescence, 5 h; series mostly up to 92.4 µM
Source text: National Center for Advancing Translational Sciences [NCATS]
Division of Preclinical Innovation [DPI]
U.S. Environmental Protection Agency [EPA]
National Institutes of Environmental Health Sciences [NIEHS]
National Toxicology Program [NTP]
U.S. Food and Drug Administration [FDA]
CREB (cyclic-AMP Responsive Element Binding Protein) is a cellular transcription factor. It binds to certain DNA sequences called cAMP Responsive Elements (CRE) and regulates the transcription of the genes. […] This cell line can be used to find agonists/antagonists of the cyclic AMP signaling pathway. The activation of the report gene under culture conditions can be detected by fluorescence intensity. This cell line has been used to screen the Tox21 10K compound library to identify agonists that induce oxidative stress. The cytotoxicity of the Tox21 compound library against the CRE-bla cell line was tested in parallel by measuring the cell viability using CellTiter-Glo assay (Promega, Madison, WI) in the same wells.
Tox21 Assay Protocol Summary:
CRE-bla Hek 293T cells were suspended in assay medium (DMEM containing 10% dialyzed FBS, 0.1 mM NEAA, 1 mM sodium pyruvate and 25 mM HEPES) and dispensed at 2,000 cells/5 uL /well into 1536-well black wall/clear bottom plates using a Multidrop Combi (ThermoFisher Scientific, Waltham, MA) dispenser. After the assay plates were incubated at 37 C/5% CO2 for 18 hrs, 23 nL of compounds dissolved in DMSO, positive controls or DMSO only was transferred to the assay plate by a pintool workstation (Kalypsys, San Diego, CA). After the plates were incubated at 37 C/5% CO2 for 3 hrs, 1 uL of LiveBLAzer B/G FRET substrate (Invitrogen, Carlsbad, CA) was added to each well using Bioraptr Flying Reagent Dispenser (FRD, Aurora Discovery, San Diego, CA). The plates were incubated at room temperature for 2 h, then fluorescence intensities were measured using an Envision plate reader (PerkinElmer, Shelton, CT) at Excitation 405nm, Emission 460nm and 530nm. The % activity was determined from the ratio of 460nm/530nm. For cell viability readout that measures cytotoxicity, 4 uL /well of CellTiter-Glo reagent was added into the assay plates using Bioraptr FRD. After 30 min incubation at room temperature, the luminescence intensity in the assay plates was measured using a ViewLux (PerkinElmer, Shelton, CT) plate reader.
% is set by controls: 0 for no effect and ±100 for the full control effect; potency is the fitted concentration of half-maximal effect.

Structure (SMILES)	Potency	activity change, negative = cytotoxicity
C1CCCCCCCCCCC1	inconclusive: 16.8 µM [cytotoxic, single point]	–
CCC(C)(CCC(C)C)C(=O)O (stereo not given)	inactive	–
Cc1ccccc1N1C(=O)c2cc(S(N)(=O)=O)c(Cl)cc2NC1C (stereo not given)	inconclusive: 0.298 µM [cytotoxic, single point]	–
CN(C)C	inconclusive: 9.83 µM [cytotoxic, single point]	–
CCCCC(CC)COCC1CO1 (stereo not given)	inactive	–
CN1CCN(C2=Nc3ccccc3Sc3ccc(Cl)cc32)CC1	inactive	–
O=Cc1c(Cl)cccc1Cl	inactive	–
Cc1cccc(N(C)C(=S)Oc2ccc3ccccc3c2)c1	inactive	–
CCOC(=O)CCCCCCCCC(=O)OCC	inactive	–
CCCCC(CC)COC(=O)c1ccccc1C(=O)O (stereo not given)	inconclusive: 15.6 µM [cytotoxic, single point]	–
CCN1/C(=C/C=C/c2sc3ccccc3[n+]2CC)Sc2ccccc21	inconclusive: 6.51 µM [cytotoxic, partial curve]	–
COC(=O)c1nc(Cl)c(Cl)nc1N	inconclusive: 15 µM [rising, full curve]	–
C=C(C)CCCC(C)CCO (stereo not given)	inconclusive: 77 µM [cytotoxic, single point]	–
CCCCCCCCCCCCCCCCCC[N+](C)(C)C	active: 61.3 µM	–
Cc1ccc2c(ccc3ccccc32)c1	inconclusive: 27.4 µM [rising, partial curve, poor fit]	–
C=C(C)C(=O)OCCOCCOCCOCCOC(=O)C(=C)C	inconclusive: 2.43 µM [cytotoxic, single point]	–
NCC(=O)CCC(=O)O	inactive	–
CCCCNc1ccc(C(=O)OCCN(CC)CC)cc1	inconclusive: 0.266 µM [cytotoxic, partial curve]	–
CC(C)[N+](C)(C)CC(O)COc1cccc2ccccc12 (stereo not given)	inconclusive: 0.668 µM [cytotoxic, single point]	–
C[N+](C)(C)CCO	inactive	–

Structure (SMILES)	Potency	activity change, negative = cytotoxicity
CC(C)(C)C(=O)C(=O)O	inactive	–
COc1cc(N)c(Cl)cc1C(=O)NC1CCN(Cc2ccccc2)CC1	inactive	–
CCCCCCCCCCCCCCNCCO	inconclusive: 0.668 µM [cytotoxic, single point]	–
CC(=O)c1cnccn1	inactive	–
CN1C(=O)N(c2ccccc2Br)Cc2cnc(Nc3ccc4c(c3)OCC(CO)O4)nc21 (stereo not given)	inactive	–
CC(=O)Nc1ccc(C(=O)O)cc1	inconclusive: 6.82 µM [cytotoxic, single point]	–
O=C1c2c(O)ccc([N+](=O)[O-])c2C(=O)c2c([N+](=O)[O-])ccc(O)c21	inconclusive: 60.6 µM [cytotoxic, single point]	–
CCCCc1ccc2c(n1)[C@@H](c1ccc(OC)cc1C[C@H](C)C(=O)O)[C@H](C(=O)O)[C@H]2c1ccc2c(c1)OCO2	inconclusive: 77 µM [cytotoxic, single point]	–
Nc1ccc(O)c([N+](=O)[O-])c1	inconclusive: 0.241 µM [cytotoxic, single point]	–
O=C(Oc1ccccc1)Oc1ccccc1	inconclusive: 12.1 µM [cytotoxic, full curve, poor fit]	–
C[C@@H](NCCCc1cccc(C(F)(F)F)c1)c1cccc2ccccc12	inconclusive: 33.5 µM [cytotoxic]	–
O=C(CCCCCCCCC#CI)Oc1ccccc1	inactive	–
CCCCCCCOC(=O)c1ccc(O)cc1	inactive	–
C[C@@H]1CC[C@@]2(OC1)O[C@H]1C[C@H]3[C@@H]4CC[C@H]5C[C@@H](O)CC[C@]5(C)[C@H]4CC(=O)[C@]3(C)[C@H]1[C@@H]2C	–	inactive: -1.47% [at 8.39 µM]
Cc1oc(-c2ccccc2)nc1CCOc1ccc(C[C@H](Nc2ccccc2C(=O)c2ccccc2)C(=O)O)cc1	inconclusive: 68.6 µM [cytotoxic, single point]	–
CN1CCC[C@H]1c1cccnc1	inactive	–
OCc1c[nH]c2ccccc12	inconclusive: 15.4 µM [cytotoxic, single point]	–
CCCCCCCCCCCCN1CCCC1=O	inconclusive: 0.545 µM [cytotoxic, single point]	–
CCCCCCCCOC(=O)c1ccc(O)cc1	inactive	–
OC[C@H]1O[C@@H]2O[C@H]3[C@H](O)[C@@H](O)[C@@H](O[C@H]4[C@H](O)[C@@H](O)[C@@H](O[C@H]5[C@H](O)[C@@H](O)[C@@H](O[C@H]6[C@H](O)[C@@H](O)[C@@H](O[C@H]7[C@H](O)[C@@H](O)[C@@H](O[C@H]1[C@H](O)[C@H]2O)O[C@@H]7CO)O[C@@H]6CO)O[C@@H]5CO)O[C@@H]4CO)O[C@@H]3CO	inconclusive: 0.647 µM [cytotoxic, single point]	–

2 records picked at random from the list so far, as already listed:
Structure (SMILES)	Potency	activity change, negative = cytotoxicity
CCC(C)(CCC(C)C)C(=O)O (stereo not given)	inactive	–
O=Cc1c(Cl)cccc1Cl	inactive	–
